In article PMC12040169 (PLOS Biology, 2025):
The list shows a part of the results.

System: T1, CTL2-GFP (C. trachomatis L2/434/Bu, GFP-expressing)
T1 construct: L2/434/Bu, GFP-expressing
Parameters: species or system HeLa; Intracellular C. trachomatis growth in HeLa cells, bulk GFP fluorescence relative to DMSO
Details: bulk GFP, single well; 28.5 h, 10 µM; inhibitor

Structure (SMILES) | % of control remaining
NC(=S)Nc1nc(-c2ccc(Br)cc2)cs1 [CBK023259] | 162.903%
O=C(CN1CCN(Cc2ccc3c(c2)OCO3)CC1)Nc1ccc(Oc2ccccc2)cc1 [CBK265864] | 105.135%
Cc1cc(NC(=O)Cc2cn3ccsc3n2)ccc1N1CCCC1 [CBK306080] | 142.18%
O=C(CCn1c(=O)oc2ccccc21)Nc1ccc2c(c1)CN(Cc1ccccc1)C2 [CBK285946] | 119.057%
COc1cccc(OC)c1OCCCN1CCCCC1 [CBK262719] | 114.259%
CN(C)c1ccc(Nc2cc(Cl)nc3ccnn23)cc1 [CBK037203] | 161.369%
COc1ccc(CN2CCN(Cc3ccco3)CC2)cc1OCc1ccccc1 [CBK264225] | 106.873%
O=C(O)CCCC(=O)NCCc1ccc(Cl)cc1Cl [CBK296930] | 167.679%
Nc1cc2ccccc2nc1C1CCN(C(=O)C2CC=CCC2)CC1 (centres unmarked) [CBK285016] | 134.596%
CCc1ccc(S(=O)(=O)N2CCN(C(c3ccccc3)c3ccccc3)CC2)cc1 [CBK093948] | 112.667%
O=C(O)CCSc1nc2ccccc2n1CCOc1ccccc1 [CBK262555] | 113.549%
O=C(CN1CCC(c2ccccc2F)CC1)NC1CCCC1 [CBK283551] | 122.105%
Cc1nnc(SCC(=O)N/N=C/c2ccncc2)n1-c1ccccc1 [CBK262762] | 126.358%
COc1ccc2c(c1)c(=O)oc1cc(OCC(=O)N3CCc4ccccc4C3)ccc12 [CBK266346] | 164.189%
CCC1(C)CC(=O)c2cc(NC(=O)N3CCc4n[nH]cc4C3)ccc2O1 (centres unmarked) [CBK306846] | 174.04%
C#CCOc1cn([C@H]2C[C@@H](O)[C@@H](CO)O2)c(=O)[nH]c1=O [CBK201278] | 116.302%
O=C(O)c1cccc(Sc2nccc(C(F)(F)F)n2)c1 [CBK115957] | 116.878%
COC(=O)CN1N=C(C(C)(C)C)Cn2c(cc3ccccc32)C1=O [CBK284204] | 87.65%
Cc1ccc(CN2CC(C(=O)N3CCC(C(=O)O)CC3)CC2=O)cc1 (centres unmarked) [CBK300205] | 136.158%
Cc1ccccc1OC(C)C(=O)Nc1ccc(S(=O)(=O)N2CCCC2)cc1 (centres unmarked) [CBK269367] | 147.327%
CCCc1nc2oc3c(-c4ccccc4)c(C(=O)O)c(C)nc3c2c2c1COC(C)(C)C2 [CBK264044] | 125.036%
Cc1nn(Cc2cccc(C(N)=O)c2)c(C)c1Br [CBK022255] | 126.39%
Cc1ccc2nc3c(cc2c1)CNCC(C)O3 (centres unmarked) [CBK281941] | 149.597%
Cc1nn(C)c(C)c1S(=O)(=O)n1ccn(-c2cccc(C(F)(F)F)c2)c1=O [CBK106593] | 157.399%
Cc1ccc(Cl)cc1N1CCN(C(=O)C2C3C=CC(C3)C2C(=O)O)CC1 (centres unmarked) [CBK287025] | 128.669%

Structure (SMILES) | % of control remaining
CCOC(=O)CC(=O)COc1nc2cc3c(nc2o1)CCCC3 [CBK269204] | 145.479%
Cc1csc(C(Cc2ccsc2)NC(=O)c2c(C)noc2C)n1 (centres unmarked) [CBK285045] | 130.236%
CC1=NN(c2ccccc2)C(=O)/C1=C/Nc1ccc(S(=O)(=O)Nc2nc(C)cc(C)n2)cc1 [CBK262368] | 14.631%
Cc1cccn2c(=O)cc(CN3CCn4c(nnc4C4CC4)C3)nc12 [CBK305232] | 89.154%
COc1ccccc1CN1CCC2(CCCNC2=O)CC1 [CBK284823] | 143.302%
CCc1nc2ccc(C(=O)Nc3ccc(NC(C)=O)cc3)cn2c1N(C)CC [CBK145483] | 87.1352%
Cc1ccc(S(=O)(=O)N(CC(=O)Nc2ccccc2F)c2cc(Cl)ccc2Cl)cc1 [CBK268647] | 93.5%
Ic1ccc2c3ccc(I)cc3c3[nH]c(-c4ccccc4)nc3c2c1 [CBK261218] | 100%
CCN1CCCC(CNS(=O)(=O)c2cc(-n3cccn3)ccc2OC)C1 (centres unmarked) [CBK306997] | 148.472%
COc1cccc(NC(=O)c2cnc(-c3ccccc3)c(-c3cccnc3)c2)c1OC [CBK037487] | 106.184%
O=C(NCc1ccco1)C1CCN(c2nccc(C(F)(F)F)n2)CC1 [CBK028778] | 126.333%
O=c1n(CC2CCCCC2)c2ccccc2n1S(=O)(=O)c1ccc2ccccc2c1 [CBK106527] | 101.502%
Cc1oc(-c2ccccc2)cc1C(=O)Nc1c(F)cc(F)cc1OC1CCNCC1 [CBK050326T] | 107.164%
Cc1ccc(C(=O)N2CCN(C)CC2)c(N2CCOCC2)n1 [CBK106199] | 118.173%
CCCCc1noc(CN2CCCC2C(=O)NCc2ccco2)n1 (centres unmarked) [CBK304036] | 125.338%
Cc1cccc(C)c1NC(=O)CN(c1ccc(F)cc1)S(=O)(=O)c1ccc2c(c1)OCCO2 [CBK264878] | 109.965%
Nc1ncc(-c2cccc3ccccc23)nc1N1CCC[C@@H]1CO [CBK063517] | 76.8226%
Clc1ccccc1CN(CCCn1ccnc1)Cc1c[nH]cn1 [CBK282988] | 80.0265%
COc1ccc2[nH]cc(C(C(=O)O)N3CCN(Cc4ccccn4)CC3)c2c1 (centres unmarked) [CBK286846] | 124.02%
O=C(NC1(c2cccc(F)c2)CCCC1)c1cnccn1 [CBK283619] | 123.317%
COc1ncc(-c2nccnc2N2CCN(C)CC2)c(OC)n1 [CBK036595] | 190.681%
CCN1CCN(C(=O)c2cccc3[nH]ccc23)CC1 [CBK200246] | 100.507%
C[C@H]1[C@@H]2[C@@H](O)C([C@H](C)C(=O)NC3CC3)CC[C@@]2(C)CC[C@@H]1NC(=O)c1cncnc1 (some centres unmarked) [CBK289453] | 178.823%
Cc1ccc(-c2ccn(C(C)C(=O)N(C)C)n2)cc1 (centres unmarked) [CBK016069] | 152.59%
Cc1csc2c(C3CCN(C(=O)c4cnn(C)c4)CC3)nc(C)n12 [CBK285250] | 134.024%

Of the compounds above, these contain two or more sulfur atoms:
Structure (SMILES) | % of control remaining
NC(=S)Nc1nc(-c2ccc(Br)cc2)cs1 [CBK023259] | 162.903%
Cc1csc(C(Cc2ccsc2)NC(=O)c2c(C)noc2C)n1 (centres unmarked) [CBK285045] | 130.236%

Not a retest: two of the compounds above.
Structure (SMILES) | % of control remaining
CCOC(=O)CC(=O)COc1nc2cc3c(nc2o1)CCCC3 [CBK269204] | 145.479%
Cc1csc(C(Cc2ccsc2)NC(=O)c2c(C)noc2C)n1 (centres unmarked) [CBK285045] | 130.236%
